In this test the target is Flag-SPOP^cyto (residues 1-366) (human). Description: co-IP.

These are yes or no findings as the source states them, for the method shown. In cells and extracts the contact can be indirect. Binding can be weak; no strength is given. Tags and fused reporters may be left off the sequences shown.

B1: Myc-DUSP7 (protein, UniProt Q16829-1 1-419)
chain: MKNQLRGPPARAHMSTSGAAAAGGTRAGSEPGAGSGSGAGTGAGAATGAGAMPCKSAEWLQEELEARGGASLLLLDCRPHELFESSHIETAINLAIPGLMLRRLRKGNLPIRSIIPNHADKERFATRCKAATVLLYDEATAEWQPEPGAPASVLGLLLQKLRDDGCQAYYLQGGFNKFQTEYSEHCETNVDSSSSPSSSPPTSVLGLGGLRISSDCSDGESDRELPSSATESDGSPVPSSQPAFPVQILPYLYLGCAKDSTNLDVLGKYGIKYILNVTPNLPNAFEHGGEFTYKQIPISDHWSQNLSQFFPEAISFIDEARSKKCGVLVHCLAGISRSVTVTVAYLMQKMNLSLNDAYDFVKRKKSNISPNFNFMGQLLDFERTLGLSSPCDNHASSEQLYFSTPTNHNLFPLNTLEST
Take B1: the binding entry is reported as “binds”.

(Values after paper doi:10.1101/2022.03.26.485909.)
